Data source: PubChem BioAssay AID504764 (Drosophila RNAi Screening Center, 2011)
Screen: 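Genes whose knock-down alters Notch-dependent transcription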 (primary screen). System: Drosophila Kc167 cells. Reagent: long dsRNA against Drosophila genes. Time to read-out: about 5 days (4 days dsRNA, then 24 h after transfection). Challenge: transfection of constitutively active membrane-tethered Notch lacking the extracellular domain, read 24 h later. Read-out: 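Firefly luciferase from an E(spl)m3 reporter with active Notch, plus control-promoter and uninduced reporter wells for normalisation; unnormalised counts, duplicate wells a and b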. Scale: induced reporter light, run 1, well a and induced reporter light, run 1, well b: higher = more light from the Notch target reporter with active Notch; control promoter light, run 1, well a and control promoter light, run 1, well b: higher = more light from the viral control promoter (cell number, transfection, viability); uninduced reporter light, run 1, well a: higher = more light from the Notch target reporter without active Notch. Hit rule: 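Wells with low control signal or poorly matching duplicates excluded; duplicates averaged; per source plate, z beyond ±2 for induced/control log2 ratio or beyond ±1.8 for induced/uninduced marks a hit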. Meaning of the calls: active = modifier hit (raised or lowered Notch signal); inactive = not a hit.
The screen tested about 22,000 reagents; below is a random part of those with a known target gene and a result. In the full data, 403 (1.9%) were called active. 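Unnormalised raw counts per well; ratio z-scores behind the hit calls and whether each hit raises or lowers signal are not deposited.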 Names joined by + are all predicted targets of the reagent. Reagent sequences are not shown. The record does not give: the amount of reagent.

gene knocked down | amplicon | induced reporter light, run 1, well a | induced reporter light, run 1, well b | control promoter light, run 1, well a | control promoter light, run 1, well b | uninduced reporter light, run 1, well a | activity call
CG12546 + CG14452 | DRSC11709 | 1.05e5 | 1.07e5 | 95635 | 81575 | 7440 | inactive
Pgant7 | DRSC19991 | 1.65e5 | 1.50e5 | 1.43e5 | 74570 | 11205 | inactive
CG3473 | DRSC01915 | 1.99e5 | 1.82e5 | 1.67e5 | 1.82e5 | 17700 | inactive
Lrch | DRSC02996 | 2.34e5 | 2.56e5 | 2.64e5 | 2.68e5 | 21360 | inactive
CG15546 | DRSC15084 | 1.45e5 | 1.64e5 | 2.23e5 | 2.06e5 | 12820 | inactive
Dtwd2 + Obp84a | DRSC12603 | 96720 | 80965 | 1.16e5 | 77005 | 7055 | inactive
Sras | DRSC11287 | 2.37e5 | 2.92e5 | 3.05e5 | 3.16e5 | 15020 | inactive
CG7945 + yellow-k | DRSC10851 | 1.85e5 | 1.91e5 | 2.10e5 | 1.66e5 | 11070 | inactive
CG8060 | DRSC07064 | 1.02e5 | 1.16e5 | 2.03e5 | 2.09e5 | 9905 | inactive
MED20 | DRSC03463 | 1.04e5 | 1.25e5 | 63095 | 77890 | 16200 | inactive
CG13084 | DRSC02188 | 35475 | 30875 | 29095 | 58350 | 1992 | inactive
Abp1 | DRSC09693 | 50585 | 50670 | 61870 | 58010 | 6515 | active
mlt | DRSC06120 | 1.99e5 | 1.54e5 | 1.64e5 | 1.49e5 | 13455 | inactive
CG9733 | DRSC16549 | 1.32e5 | 1.32e5 | 2.14e5 | 1.93e5 | 10635 | inactive
Gr77a | DRSC11446 | 2.70e5 | 2.44e5 | 3.38e5 | 3.63e5 | 19988 | inactive
CG13871 | DRSC06430 | 1.07e5 | 96940 | 1.07e5 | 1.07e5 | 7950 | inactive
rdgC | DRSC11387 | 82045 | 52425 | 71165 | 58830 | 4580 | inactive
hpRNA:CR18854 + IP3K1 | DRSC02218 | 1.96e5 | 1.61e5 | 1.93e5 | 2.02e5 | 17030 | inactive
Kap-alpha1 | DRSC11356 | 1.62e5 | 1.19e5 | 1.17e5 | 91330 | 8415 | inactive
CG5160 | DRSC02821 | 60700 | 55520 | 59305 | 48745 | 3330 | inactive
